Assay results from article PMC4673492.

Columns and labels:
GST-TRF2-S [1] = molecular target: T1, GST-TRF2-S (UniProt F6KWE7); test: biotin pull-down; details: Pull-down: HEPES-KOH pH 7.5 buffer B (MgCl2, NP-40, DTT), final 120 mM KCl, 30 min, room temperature, recombinant protein, protein details: GST, label: biotin
T1 sequence (looked up, limits assumed): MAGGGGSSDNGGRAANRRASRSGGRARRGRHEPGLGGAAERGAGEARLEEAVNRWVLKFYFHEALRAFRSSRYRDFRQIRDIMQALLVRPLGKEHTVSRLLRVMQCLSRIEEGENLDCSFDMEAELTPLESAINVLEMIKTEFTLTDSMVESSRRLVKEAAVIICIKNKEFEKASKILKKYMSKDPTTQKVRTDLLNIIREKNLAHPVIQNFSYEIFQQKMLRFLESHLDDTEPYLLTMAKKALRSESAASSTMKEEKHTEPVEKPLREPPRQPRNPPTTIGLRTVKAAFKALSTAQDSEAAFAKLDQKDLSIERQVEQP

GST-FMRP (mouse) [2] = molecular target: GST-FMRP (mouse) (UniProt P35922); test: biotin pull-down; details: Pull-down: HEPES-KOH pH 7.5 buffer B (MgCl2, NP-40, DTT), final 120 mM KCl, 30 min, room temperature; recombinant protein; protein details: GST; label: biotin; probe letters rebuilt from the primers and the genome
GST-FMRP (mouse) [3] = molecular target: GST-FMRP (mouse) (UniProt P35922); test: EMSA; details: EMSA: 10 mM Tris-HCl pH 8.0, 100 mM KCl, 0.3 mM MgCl2, 10 mM DTT, 1 h, room temperature; recombinant protein; protein details: GST; label: biotin; probe letters rebuilt from the primers and the genome
GST-TRF2-S [4] = molecular target: T1, GST-TRF2-S; test: UV cross-linking, RNase T1 footprint sequencing; details: 5 mM MgCl2; recombinant protein; protein details: GST; label: biotin; probe letters rebuilt from the primers and the genome
[5] = probe letters rebuilt from the primers and the genome
[6] = letters put together from the description

Row | Sequence | binding result (GST-TRF2-S [1]; [5]) | binding result (GST-FMRP (mouse) [2]) | binding result (GST-TRF2-S [1]; [6]) | binding result (GST-FMRP (mouse) [3]) | binding result (GST-TRF2-S [4])
1 | GGGAGAGCAGGGCCGGGCGGGAGCGCAGGGGACCUGAGGGCCCGAGGCCCGGACAUGGGGCCCUCCAGCCCCACCACUCGCGGUCAGGGUCGCCGCCGGGGCCCGCCGCCGCUGCCGCUGUUGCUACCACUGUCGCUGCUGCUUCUGCGCGCGCAGCUCGCCGUCGGGAACCUGGCUGGUGGGAGCCCCAGCGCGGCCGAGGCUCCGGGGUCGGCUCAAGUGGCUGGACUAUGUGGGCGUCUCACCCUUCACCGAGACCUGCGCACCGGCCGCUGGGAACCAGACCCACAGCGAUCACGACGCUGUCUUCUGGACCCGCAGCGCGUGCUGGAGUACUGCAGACAGAUGUACCCAGAGCUGCACAUAGCUCGUGUGGAGCAGGCUGCACAGGCCAUCCCGAUGGAGCGCUGGUGUGGGGGUACCCGAAGUGGCAGAUGUGCCCACCCCCACCAUGAGGUUGUGCCCUUCCAUUGCCU [Aplp1-5'CR1] | binds | no binding | – | – | –
2 | GGGAGAGGUCUGCGGGCCUAAGCCUCAUCCCGGUACCGGGACUUCAGGCAGAUCCG [Trf2-S Clip-MT1] | – | – | binds more weakly | – | –
3 | GGGAGACCAUGGGCUUCAUUCUAAUGUAUGACAUCACCAAUGAGGAGUCCUUCAAUGCAGUGCAGGACUGGUCCACUCAGAUCAAAACUUACUCAUGGGACAAUGCCCAGGUGCUGCUGGUGGGGAACAAGUGCGACAUGGAGGACGAGCGAGUGGUGUCCUCAGAACGAGGCCGGCAGCUGGCCGACCACCUGGGCUUUGAGUUCUUUGAGGCCAGCGCCAAGGACAACAUUAAUGUCAAGCAGACCUUUGAACGUCUGGUGGACGUGAUCUGUGAGAAGAUGUCGGAGUCCCUAGAUACUGCAGACCCUGCAGUCACGGGUGCCAAGCAGGGCCCACAGCUCACCGACCAGCAGGCACCACCUCAUCAGGAUUGCGCCUGCUGAACCACACUUCCCUUCCCCACC [Rab3a-CR2] | binds | no binding | – | no binding | –
4 | GGGAGAGGUCUGCGGGCCUUUCGGAGUAGCCGGUACCGGGACUUCAGGCAGAUCCG [Trf2-S Clip-WT] | – | – | binds | – | –
5 | GGGAGAGGUCUGCGGGCCUUUCGGAGUAGCCGGUACCGGGACUUCACCGUCUAGCG [Trf2-S Clip-MT2] | – | – | binds more weakly | – | –
6 | GGGAGAAUGGCGGGAGGAGGCGGGAGCAGCGACAACGGCGGGAGGGCGGCGAACCGGCGAGCAUCGCGCAGCGGCGGGAGGGCUCGACGGGGGCGGCACGAGCCGGGGCUGGGAGGCGCGGCAGAGCGGGGCGCGGGGGAAGCUCGUCUGGAGGAGGCGGUCAACCGCUGGGUGCUCAAGUUCUACUUCCACGAGGCGCUGCGGGCCUUUCGGAGUAGCCGGUACCGGGACUUCAGGCAGAUCCGGGACAUCAUGCAGGCGUUGCUUGUCAGGCCCUUGGGGAAGGAGCAUACGGUGUCCCGGUUGCUGCGGGUUAUGCAGUGUCUAUCGCGCAUUGAAGAAGGAGAAAAUUUAGACUGUUCCUUUGAUAUGGAGGCCGAGCUCACACCCCUGGAGUCAGCUAUCAAUGUGCUGGAGAUGAUUAAAACAGAGUUCACACUGACAGACUCAAUGGUUGAAUCCAGCAGGAGACUGGUGAAGGAGGCUGCUGUCAUUAUUUGUAUCAAAAACAAAGAAUUUGAAAAGGCUUCAAAAAU [Trf2-S-CR1] | binds | no binding | – | no binding | binds
7 | GGGAGAGGUCUGCGGGCCUAAGCCUCAUCCCGGUACCGGGACUUCACCGUCUAGCG [Trf2-S Clip-MT1+2] | – | – | binds more weakly | – | –

The exact form of at least one protein or probe is not confirmed. For some of these results: A negative result means that nothing was seen under these conditions. For some of these results: At least one verdict was read from the data and is not stated in words by the source. For some of these results: A weaker result is weaker than the reference pair of the same experiment. For some of these results: Tags and fusion partners may be left off the protein sequences shown.
